Data source: PubChem BioAssay AID1259424 (University of Nebraska Medical Center, 2018)
Test: 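Seek colon cancer survival genes behaving like KSR1, using a six-gene signature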 (primary screen). System: human HCT116 colon cancer cells. Reagent: siRNA pool against human genes, 50 nM. Measured: 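Log2 levels of six mRNAs (branched-DNA multiplex), adjusted by two reference genes and the non-targeting median, then scored against the average KSR1 knockdown pattern as Pearson r and euclidean distance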. Scale: mean correlation with KSR1 profile and KSR1 correlation: higher = expression change more like KSR1 knockdown; mean distance from KSR1 profile: higher = expression change less like KSR1 knockdown.
The deposit covers about 14,000 reagents; this is a random part of them. 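Higher correlation or smaller distance means closer resemblance to KSR1 loss; control wells, including KSR1 knockdowns, recur on many plates.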 Not given: the time to read-out.

| target gene | mean correlation with KSR1 profile | mean distance from KSR1 profile | KSR1 correlation, replicate 1 | KSR1 correlation, replicate 2 | KSR1 correlation, replicate 3 |
| --- | --- | --- | --- | --- | --- |
| EPB41L1 (erythrocyte membrane protein band 4.1 like 1) | 0.17 | 1.91 | 0.312 | 0.185 | 0.148 |
| A1CF (APOBEC1 complementation factor) | 0.432 | 1.05 | 0.507 | 0.47 | 0.474 |
| PPAT (phosphoribosyl pyrophosphate amidotransferase) | 0.443 | 1.63 | 0.428 | 0.447 | 0.263 |
| GNB4 (G protein subunit beta 4) | 0.553 | 1.97 | 0.474 | 0.522 | 0.694 |
| IFI27L2 (interferon alpha inducible protein 27 like 2) | 0.319 | 1.76 | 0.181 | 0.313 | 0.239 |
| DHX34 (DExH-box helicase 34) | 0.628 | 0.96 | 0.582 | 0.693 | 0.545 |
| FN3K (fructosamine 3 kinase) | -0.0588 | 3.41 | -0.0374 | -0.0489 | -0.27 |
| PDE6A (phosphodiesterase 6A) | -0.692 | 1.71 | -0.604 | -0.471 | -0.917 |

Next part; the last 2 above are carried over.
| target gene | mean correlation with KSR1 profile | mean distance from KSR1 profile | KSR1 correlation, replicate 1 | KSR1 correlation, replicate 2 | KSR1 correlation, replicate 3 |
| --- | --- | --- | --- | --- | --- |
| FN3K (fructosamine 3 kinase) | -0.0588 | 3.41 | -0.0374 | -0.0489 | -0.27 |
| PDE6A (phosphodiesterase 6A) | -0.692 | 1.71 | -0.604 | -0.471 | -0.917 |
| NANS (N-acetylneuraminate synthase) | -0.778 | 3.28 | -0.548 | -0.642 | -0.847 |
| GPX4 (glutathione peroxidase 4) | 0.231 | 1.78 | 0.0841 | 0.389 | 0.105 |
| FZD3 (frizzled class receptor 3) | 0.588 | 1.58 | 0.597 | 0.643 | 0.392 |
| UBC (ubiquitin C) | 0.197 | 4.09 | 0.569 | -0.245 | 0.0393 |
| VHL (von Hippel-Lindau tumor suppressor) | -0.742 | 1.87 | -0.472 | -0.943 | -0.708 |
| SOX3 (SRY-box transcription factor 3) | -0.00863 | 3.56 | -0.00374 | 0.0947 | 0.133 |
| KIF21B (kinesin family member 21B) | -0.641 | 3.09 | -0.719 | -0.606 | -0.537 |
| CDC14C (cell division cycle 14C) | 0.341 | 1.28 | 0.135 | 0.173 | 0.482 |
| NUDT13 (nudix hydrolase 13) | -0.502 | 2.98 | -0.371 | -0.583 | -0.547 |
| ECHS1 (enoyl-CoA hydratase, short chain 1) | 0.352 | 2.53 | 0.434 | 0.486 | 0.322 |
| MSMB (microseminoprotein beta) | -0.239 | 2.18 | -0.213 | -0.347 | -0.284 |
| FLOT2 (flotillin 2) | -0.52 | 2.89 | -0.542 | -0.365 | -0.602 |
